Assay results reported in PubChem BioAssay (NCATS).
“And” between values parts separate entries of the source, which are not always exact repeats. Identical values can stand only once. This is one part of the list. Shown are side measurements of this screen, not its main read-out; they come without a call. The list favours compounds with an active or inconclusive main result. Words in brackets tell the shape of the fitted curve; partial curves, single points and poor fits give uncertain potencies.

experiment: qHTS assay for small molecule antagonists of peroxisome proliferator-activated receptor gamma signaling (AID 588537); conditions: HEK293 PPARg-UAS-bla, beta-lactamase ratio, antagonist mode; measured here: W460 blue channel
From the text: NIH Chemical Genomics Center [NCGC]
U.S. Environmental Protection Agency [EPA]
National Institutes of Environmental Health Sciences [NIEHS]
National Toxicology Program [NTP]
The Peroxisome proliferator-activated receptors (PPARs) are lipid-activated transcription factors of the nuclear receptor superfamily with three distinct subtypes namely PPAR alpha, PPAR delta (also called PPAR beta) and PPAR gamma. All these subtypes heterodimerizes with Retinoid X receptor (RXR) and these heterodimers regulate transcription of various genes. PPAR-gamma (glitazone receptor) ligands have been used in the treatment of type 2 diabetes and dyslipidaemia. It is involved in the regulation of glucose and lipid metabolism. PPAR-gamma activates certain genes like Paraoxonase 1 which is responsible for hydrolyzing organophosphates. PPAR-gamma ligands may also be therapeutically important in the treatment of coronary artery disease, obesity and cancer and atherosclerosis.
NCGC Assay Protocol Summary
Using a beta-lactamase reporter-gene under control of Peroxisome Proliferator-Activated-gamma (PPAR-gamma) response element, a cell-based assay [GeneBLAzer PPAR-gamma-UAS-bla assay developed by Invitrogen] was used to measure PPAR-gamma ligands signaling. GeneBLAzer PPAR-gamma-UAS-bla-HEK293 cells were used with assay medium containing 1% charcoal/dextran treated FBS. The assay was performed in clear bottom black Greiner 1536-well plates. Library compounds were measured for their ability to inhibit the reporter gene activity. Compounds were screened in a titration series in 1536-well format. The fluorescence intensity (405 nm excitation, 460/530 nm emission) was measured using an EnVision plate reader. Data was normalized relative to Rosiglitazone control (50 nM, 100%), and DMSO only wells (basal, 0%). Concentration-response titration points for each compound were fitted to the Hill equation yielding concentrations of half-maximal inhibition (IC50) and maximal response (efficacy) values.
qHTS protocol for PPAR-gamma beta-lactamase assay in antagonist mode
[Step] [Parameter] [Value] [Description]
1. Reagent; 5 uL; 3000 cells/well
2. Incubation; 37 C for 6-6.5 hrs
4. Controls (GW9662, PPAR-gamma antagonist); 23 nL,
5. Agonist (Stimulator); 1uL; Rosiglitazone at 50 nM (final) concentration
6. Incubation; 37 C for 16 hrs
7. Detection reagent; 1 uL of CCF4-dye
8. Incubation; RT for 2 hrs
9. Detection; Fluorescence; Envision plate reader

Structure (SMILES) | AC50
Cc1cc(=O)oc2cc(O)cc(O)c12 | 50.1 µM [rising, single point]
CCc1nc(N)nc(N)c1-c1ccc(Cl)cc1 | 0.0316 µM [falling, full curve, poor fit]
CN(C)C=O | 50.1 µM [rising, single point]
O=C(/C=C/C=C/c1ccc2c(c1)OCO2)N1CCCCC1 | 44.7 µM [falling, single point]
CCOC(=O)NCCOc1ccc(Oc2ccccc2)cc1 | 39.8 µM [falling, partial curve, poor fit]
CCCNC(=O)NS(=O)(=O)c1ccc(Cl)cc1 | 50.1 µM [rising, single point]
NC(=O)Nc1nc2ccccc2[nH]1 | 50.1 µM [rising, single point]
CN(C)c1ccc(C(=N)c2ccc(N(C)C)cc2)cc1 | 39.8 µM [falling, partial curve]
CN(C)c1ccc(C(=C2C=CC(=[N+](C)C)C=C2)c2ccc(N(C)C)cc2)cc1 | 50.1 µM [falling, single point] and 50.1 µM [falling, partial curve, poor fit]
Cc1cc(C(=O)O)ccc1[N+](=O)[O-] | 70.8 µM [rising, single point]
Cc1cc(C(C)(C)C)c(O)c(C(C)(C)C)c1 | 70.8 µM [rising, single point]
O=C1c2c(O)ccc([N+](=O)[O-])c2C(=O)c2c([N+](=O)[O-])ccc(O)c21 | 22.4 µM [falling, full curve]
CC(COc1ccc(C(C)(C)C)cc1)OS(=O)OCCCl (stereo not given) | 25.1 µM [falling, full curve]
NC(=S)NNC(N)=S | 0.355 µM [rising, full curve, poor fit]
Nc1cccc(S(=O)(=O)O)c1 | 44.7 µM [rising, single point]
CSc1ccc(C=O)cc1 | 0.0355 µM [falling, full curve, poor fit]
COc1ccc(CCC(=O)c2c(O)cc(O[C@@H]3O[C@H](CO)[C@@H](O)[C@H](O)[C@H]3O[C@@H]3O[C@@H](C)[C@H](O)[C@@H](O)[C@H]3O)cc2O)cc1O | 63.1 µM [rising, single point]
CCCCCCCCOc1ccc(C(=O)O)cc1 | 25.1 µM [falling, full curve]
O=c1cc(-c2ccc(O)cc2)oc2cc(O)cc(O)c12 | 0.00398 µM [falling, full curve, poor fit]
C=Cc1ccccc1Cl | 50.1 µM [rising, single point]

Structure (SMILES) | AC50
N#CSCSc1nc2ccccc2s1 | 31.6 µM [falling, partial curve, poor fit]
COc1cc(/C=C/C(=O)CC(=O)/C=C/c2ccc(O)c(OC)c2)ccc1O | 44.7 µM [rising, single point]
CC1CCCO1 (stereo not given) | 50.1 µM [rising, single point]
CCCCCCCC/C=C\CCCCCCCC(=O)OC[C@@H](O)[C@H]1OC[C@H](O)[C@H]1O | 22.4 µM [rising, full curve, poor fit]
CC(=O)CC(=O)Nc1ccccc1C | 0.0112 µM [rising, full curve, poor fit]
CN(C)c1ccc2nc3ccc(=[N+](C)C)cc-3sc2c1 | 50.1 µM [rising, single point]
C#C[C@]1(O)CC[C@H]2[C@@H]3CCC4=Cc5oncc5C[C@]4(C)[C@H]3CC[C@@]21C | 0.0316 µM [falling, full curve, poor fit]
CC(CN1c2ccccc2Sc2ccccc21)N(C)C (stereo not given) | 44.7 µM [falling, partial curve, poor fit]
CCO[Si](CCCN)(OCC)OCC | 50.1 µM [rising, single point]
CC[C@@H]1Cc2cc(O)ccc2C2=C1c1ccc(O)cc1C[C@H]2CC | 44.7 µM [falling, partial curve, poor fit]
Oc1c(I)cc(Cl)c2cccnc12 | 35.5 µM [falling, partial curve, poor fit]
Cc1cc(C)nc(NS(=O)(=O)c2ccc(N)cc2)n1 | 50.1 µM [rising, single point] and 5.62 nM [falling, full curve, poor fit]
O=C(Cl)c1c(Cl)cccc1Cl | 63.1 µM [rising, single point]
CC(=O)c1cc(C)oc1C | 50.1 µM [rising, partial curve, poor fit]
O=C(Nc1ccccc1)c1cc(Cl)ccc1O | 39.8 µM [falling, partial curve, poor fit]
Cc1cc(C)c(N)cc1C | 50.1 µM [rising, single point]
CC1(C)CC(OC(=O)CCCCCCCCC(=O)OC2CC(C)(C)NC(C)(C)C2)CC(C)(C)N1 | 0.0126 µM [falling, full curve, poor fit]
CCC1(c2ccccc2)C(=O)NCNC1=O | 70.8 µM [rising, single point]
CO[C@H]1/C=C/O[C@@]2(C)Oc3c(C)c(O)c4c(O)c(c(/C=N/N5CCN(C)CC5)c(O)c4c3C2=O)NC(=O)/C(C)=C\C=C\[C@H](C)[C@H](O)[C@@H](C)[C@@H](O)[C@@H](C)[C@H](OC(C)=O)[C@@H]1C | 70.8 µM [rising, single point]
C[Si](Cl)(Cl)c1ccccc1 | 8.91 µM [falling, full curve, poor fit]
